# Assay results: article PMC7819943, “Rice protein-binding microarrays: a tool to detect cis-acting elements near promoter regions in rice”
# Protein sequences, listed by entry. Tags and fused reporters are not part of them.
# UniProt Q0JBA9, entry or part of it: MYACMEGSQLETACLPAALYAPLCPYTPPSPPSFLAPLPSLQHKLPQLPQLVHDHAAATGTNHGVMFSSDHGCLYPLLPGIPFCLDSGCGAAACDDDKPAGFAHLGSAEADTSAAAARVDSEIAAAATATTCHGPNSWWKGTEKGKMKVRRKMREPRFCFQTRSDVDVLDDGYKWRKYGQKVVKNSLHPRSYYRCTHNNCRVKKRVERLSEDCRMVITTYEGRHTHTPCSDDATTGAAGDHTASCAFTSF
# The list shows a part of the results.
# Target: OsWRKY34 (Oryza sativa, UniProt Q0JBA9 1-250)
# Test: protein-binding microarray (RPBM); PBS, 2% BSA, 51.3 ng/ul salmon testes DNA, 50 uM zinc acetate, 200 nM TF, 25 C, 1 h; high values mean tight binding
# Conditions: protein: recombinant; tags: N-terminal polyhistidine and DsRed monomer fusion (pET32a); label: CyDye5-dUTP incorporated in the synthesized complementary strand; 3' TTTTT single-stranded linker to array surface; dsDNA, one strand shown
# Procedure, shortened: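 The binding signal for each feature is its fluorescence intensity in arbitrary units. An Axon 4000B scanner was used to read a custom Agilent array that had been made double-stranded with Cy5-dUTP primer extension, blocked with 2% BSA, incubated at 25 °C for 1 h with 200 nM protein in PBS, 2% BSA, salmon testes DNA and 50 µM zinc acetate, and washed. The protein was an N-terminal polyhistidine–DsRed transcription factor fusion from E. coli BL21-CodonPlus, purified on Ni–NTA.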
row,Sequence,binding signal
1,CCACCAGGCCGCCACTCCGAGTCCGACACGACCCATCATACGGAGTCACCTAGTGCAG,9600 fluorescence intensity (a.u.)
2,TAATATATCTCCATTTGTCGACAACCCTCGTACGCGTCCGCGGAGTCACCTAGTGCAG,8610 fluorescence intensity (a.u.)
3,GAATTGCACTTTAGACCATCTTTTATTACCTTAATTTTACCGGAGTCACCTAGTGCAG,10800 fluorescence intensity (a.u.)
4,TCTTCTTTATCTCCTTCACTGAATTCTCATGCATACACATCGGAGTCACCTAGTGCAG,8670 fluorescence intensity (a.u.)
5,TGCATATAATACTACGAGTCTAAACTTTTGACTGTCCTATCGGAGTCACCTAGTGCAG,8030 fluorescence intensity (a.u.)
6,TCCTTGTTGCAGAGTGTATGTGCCTTCCAATTTTCCATATCGGAGTCACCTAGTGCAG,10100 fluorescence intensity (a.u.)
7,TATAGGACAGAGGGAGGACCTCTTACCTCCGCGTTGTTGTCGGAGTCACCTAGTGCAG,8120 fluorescence intensity (a.u.)
8,CCACGGCCGCCCACCTGTTCCTCGGTTGCCAATAGCACTCCGGAGTCACCTAGTGCAG,11200 fluorescence intensity (a.u.)
9,GTGCCATCCTGATTTGTCCCTCCCTGTCGCCTCACTGTTTCGGAGTCACCTAGTGCAG,10700 fluorescence intensity (a.u.)
10,ACAGCTTTTACTACTCCGACATTTTCCTCCACAATATACACGGAGTCACCTAGTGCAG,8070 fluorescence intensity (a.u.)
11,GCTGTGACATCCAAAATTTTACTTTTCCCCAACTAAACACCGGAGTCACCTAGTGCAG,8230 fluorescence intensity (a.u.)
12,ACTAAATGCATTTTTTTTCTGAACTGCTGTTTTGTTGTATCGGAGTCACCTAGTGCAG,9340 fluorescence intensity (a.u.)
13,CTAGCTAGCTCGCACCTTCTTCTTCGTGTTCGTTAAGCTTCGGAGTCACCTAGTGCAG,9690 fluorescence intensity (a.u.)
14,TTACTGCTACCTCCACTTCATGTTATAAGTTGTTTTACCTCGGAGTCACCTAGTGCAG,8580 fluorescence intensity (a.u.)
15,TTTACCTACAGATACTATTCCTCGTGACATTTTTACTTAGCGGAGTCACCTAGTGCAG,9040 fluorescence intensity (a.u.)
16,GGGGTATAGAAGGGATCGGGTAAATTTCAGAGATATAAAACGGAGTCACCTAGTGCAG,8860 fluorescence intensity (a.u.)
17,AAACTTGTATTCAACTGCGCTTTGGTTAGGTTAGGTAGTACGGAGTCACCTAGTGCAG,9830 fluorescence intensity (a.u.)
18,TTTCCATTCAACCGGTGAGCCATTTGTCGATTTCTTGCAGCGGAGTCACCTAGTGCAG,8960 fluorescence intensity (a.u.)
19,AAAGTTTGTTCGTCGCGGTCTTCTGGAGAGGATGGCTTTCCGGAGTCACCTAGTGCAG,8380 fluorescence intensity (a.u.)
20,GTTTCCTACCAACGTTTGACTGTCCGTCTTATATAATTTTCGGAGTCACCTAGTGCAG,9090 fluorescence intensity (a.u.)
21,GCTTTGCTCTCTACACCCACCGCCACCGACCCAACCACACCGGAGTCACCTAGTGCAG,9830 fluorescence intensity (a.u.)
22,GGCGGCGGCGGAGGAGGAGGAGGGGAGGGGAGCACGAGCGCGGAGTCACCTAGTGCAG,17400 fluorescence intensity (a.u.)
23,TTGGCGGTGGAGGCGGTGGTGGCTTTGGAGGAGACGGTGGCGGAGTCACCTAGTGCAG,8650 fluorescence intensity (a.u.)
24,CCTCCGTTTCAAAATATTTGACACCGTTGACTTTTTAGTACGGAGTCACCTAGTGCAG,14100 fluorescence intensity (a.u.)
25,TATTTGACGTCGTTGACTTTTTAAAACATGTTTGACCATTCGGAGTCACCTAGTGCAG,30200 fluorescence intensity (a.u.)
26,AAAACTCCGTCCCCGTACAAACATGTTTTTTTTTTCTCGACGGAGTCACCTAGTGCAG,12800 fluorescence intensity (a.u.)
27,GACCGGCATCACCTGCCCGGTCTAACCGGACCTGACAAAACGGAGTCACCTAGTGCAG,8290 fluorescence intensity (a.u.)

row,Sequence,binding signal
1,TAGCTAGTTATTACGTATTCTTGTGTGGATTACGTTGACTCGGAGTCACCTAGTGCAG,8680 fluorescence intensity (a.u.)
2,GAGTGTTTTTGTGAGGGCTTTTGGTCAGTTTGAGTGAACTCGGAGTCACCTAGTGCAG,10700 fluorescence intensity (a.u.)
3,AGAACTATCATCGCCGTTAGGGTCATTTCCATCTTGCGTCCGGAGTCACCTAGTGCAG,10200 fluorescence intensity (a.u.)
4,AGTCATTTTCTCTTGCTCATTGGCATTGGCAACTTTAACTCGGAGTCACCTAGTGCAG,11100 fluorescence intensity (a.u.)
5,GATCTTTGGGTCCCACATGTTATTTTTATTATTTTTGTTACGGAGTCACCTAGTGCAG,8210 fluorescence intensity (a.u.)
6,GAATCATGTGCTATCTCGTTAATTATCTGCTCTTTTAGCTCGGAGTCACCTAGTGCAG,9000 fluorescence intensity (a.u.)
7,ACATCCTTTCGCTATTTGCTGAAACATTGTTTTTATGTAGCGGAGTCACCTAGTGCAG,8870 fluorescence intensity (a.u.)
8,AGGTGTAGTTTTTTGTTTTATAGATTGATAGGTGGAAAGACGGAGTCACCTAGTGCAG,11000 fluorescence intensity (a.u.)
9,TAACAAACCCCACACTGTCTCTACTAGTCTTCGTCGTCCTCGGAGTCACCTAGTGCAG,12000 fluorescence intensity (a.u.)
10,AGATAACTTGCCATGCCGCATTCTCTTTGAACTCGGTCTCCGGAGTCACCTAGTGCAG,8530 fluorescence intensity (a.u.)
11,ACACGTTCAGGCTCATTTCCACCCGTCACGGGCAAATCGTCGGAGTCACCTAGTGCAG,8240 fluorescence intensity (a.u.)
12,CATTTATCTATTTATCTATCTATATATATTATATTATATTCGGAGTCACCTAGTGCAG,8560 fluorescence intensity (a.u.)
13,GATTCTCGCTAATCCGAGTGGCCAAATTGACTGTTCCATTCGGAGTCACCTAGTGCAG,8680 fluorescence intensity (a.u.)
14,GAATCAAATCTCTACCGTCCATCCGTCATCTGATTTAATCCGGAGTCACCTAGTGCAG,8160 fluorescence intensity (a.u.)
15,CGCGTTCTTATCTCGGCCATCGCCGTCGCCGTCGCCGTCGCGGAGTCACCTAGTGCAG,8510 fluorescence intensity (a.u.)
16,GATACAATAATTACTCCGTATTACTCTCTCTCCCTGCTTACGGAGTCACCTAGTGCAG,11300 fluorescence intensity (a.u.)
17,CGCCACCGCATCCAGTCACCTCACCACCACCGCAGCATCACGGAGTCACCTAGTGCAG,10000 fluorescence intensity (a.u.)
18,AAAAGTCAACGGTGTCAAACATTTTAAAAGGGAGGGAGTACGGAGTCACCTAGTGCAG,8040 fluorescence intensity (a.u.)
19,TATAAATCTGCAGCTTCACTCGCCGCTACCATCCAATCCACGGAGTCACCTAGTGCAG,9630 fluorescence intensity (a.u.)
20,CAGCTTTTCCAGATTCTCACCAGCTGCTTCTCAGAGTCTTCGGAGTCACCTAGTGCAG,10200 fluorescence intensity (a.u.)
21,TCCCACCCGTTATCTCTCCTAACTTTTTCTCTCCTCTCTCCGGAGTCACCTAGTGCAG,8410 fluorescence intensity (a.u.)
22,GTTTGGATCCGCGTGCCGTCTAAGTTTCCGTTTTGGATCTCGGAGTCACCTAGTGCAG,8370 fluorescence intensity (a.u.)
23,GAATGGTGGAGGGTTGCGATTGGTTGGGAAGATAATGTTGCGGAGTCACCTAGTGCAG,10000 fluorescence intensity (a.u.)
24,AATCATCTACTATATTCTACATTAGTCTTCTGCATCCATCCGGAGTCACCTAGTGCAG,11600 fluorescence intensity (a.u.)
25,CGATTCGTGTGTGTGCGCGACGCGTTTCCGCCTTTTACGTCGGAGTCACCTAGTGCAG,9050 fluorescence intensity (a.u.)
26,AAAACCAAACCAAACCAATATTGCATGGTCCAGTGCACCACGGAGTCACCTAGTGCAG,8280 fluorescence intensity (a.u.)
27,TACCACTGCGCATCCACCACCACCACACACGGATTTCAGACGGAGTCACCTAGTGCAG,9500 fluorescence intensity (a.u.)

# Taken from the entries so far for reference:
row,Sequence,binding signal
14,GAATCAAATCTCTACCGTCCATCCGTCATCTGATTTAATCCGGAGTCACCTAGTGCAG,8160 fluorescence intensity (a.u.)
15,CGCGTTCTTATCTCGGCCATCGCCGTCGCCGTCGCCGTCGCGGAGTCACCTAGTGCAG,8510 fluorescence intensity (a.u.)
